From publication PMC9839844, “PPDPF Promotes the Development of Mutant KRAS‐Driven Pancreatic Ductal Adenocarcinoma by Regulating the GEF Activity of SOS1” (Advanced Science, 2022)
These are yes or no findings as the source states them, for the method shown. Binding seen in cells or lysates may run through a third protein. Some binding calls cover weakened binding; strength is not graded here.

What was measured:
[1] = target: T1, PPDPF, endogenous, Miapaca2 cells (human (endogenous in Miapaca2)) (UniProt Q9H3Y8); test: co-IP; endogenous proteins in Miapaca2 cells; IP with PPDPF or SOS1 antibody
T1 sequence: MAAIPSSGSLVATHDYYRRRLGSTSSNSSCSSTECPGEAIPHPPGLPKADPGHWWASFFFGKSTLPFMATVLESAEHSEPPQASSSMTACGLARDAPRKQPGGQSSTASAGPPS

[2] = target: T2, PPDPF (pancreatic progenitor cell differentiation and proliferation factor), exogenous, in 293T cells (UniProt Q9H3Y8); test: co-IP; exogenous proteins in HEK293T cells; IP lysis buffer with protease inhibitors, beads overnight, western blot
T2 sequence: T1 sequence

[3] = target: SOS1, endogenous, Miapaca2 cells (human (endogenous in Miapaca2)) (UniProt Q07889); test: co-IP; endogenous proteins in Miapaca2 cells; IP with PPDPF or SOS1 antibody

For “SOS1, endogenous, Miapaca2 cells (from UniProt Q07889 1-1333)”, the binding [1] was “binds”.

For “SOS1, exogenous, in 293T cells (from UniProt Q07889 1-1333)”, the binding [2] was “binds”.

For “SOS1^Cat, in 293T cells (from UniProt Q07889 566-1046) (domain or fragment)”, the binding [2] was “binds”.

B1: PPDPF, recombinant (natural protein, UniProt Q9H3Y8 1-114, looked up)
chain: T1 sequence
notes: Pancreatic progenitor cell differentiation and proliferation factor (PPDPF); subcloned into pGEX-4T-1; The methods say that the beads were incubated with thrombin; also called PPDPF recombinant protein; source: E. coli BL21, purified (GST beads)
With B1 the binding [3] was “binds”.
